# Counter-ions that a name gives are not always drawn. Some of the results follow. Hit calls seldom repeat between salt and free forms of one compound.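 In K562 cells expressing nanoluciferase-fused kinases, luminescence was recorded at 4 h intervals between 2 and 18 h, normalized as percent of control with DMSO at 100% and a positive control at 0%. A significant (2 sigma) signal drop marks a time point as decreased. The authors' rule for a hit is not shown and takes in more than the number of time points.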
# Amino acid sequences for entries named in this document (tags omitted). A change or cut given only in a name is not applied to a line headed by its entry.
# UniProt P11362, whole entry, looked up: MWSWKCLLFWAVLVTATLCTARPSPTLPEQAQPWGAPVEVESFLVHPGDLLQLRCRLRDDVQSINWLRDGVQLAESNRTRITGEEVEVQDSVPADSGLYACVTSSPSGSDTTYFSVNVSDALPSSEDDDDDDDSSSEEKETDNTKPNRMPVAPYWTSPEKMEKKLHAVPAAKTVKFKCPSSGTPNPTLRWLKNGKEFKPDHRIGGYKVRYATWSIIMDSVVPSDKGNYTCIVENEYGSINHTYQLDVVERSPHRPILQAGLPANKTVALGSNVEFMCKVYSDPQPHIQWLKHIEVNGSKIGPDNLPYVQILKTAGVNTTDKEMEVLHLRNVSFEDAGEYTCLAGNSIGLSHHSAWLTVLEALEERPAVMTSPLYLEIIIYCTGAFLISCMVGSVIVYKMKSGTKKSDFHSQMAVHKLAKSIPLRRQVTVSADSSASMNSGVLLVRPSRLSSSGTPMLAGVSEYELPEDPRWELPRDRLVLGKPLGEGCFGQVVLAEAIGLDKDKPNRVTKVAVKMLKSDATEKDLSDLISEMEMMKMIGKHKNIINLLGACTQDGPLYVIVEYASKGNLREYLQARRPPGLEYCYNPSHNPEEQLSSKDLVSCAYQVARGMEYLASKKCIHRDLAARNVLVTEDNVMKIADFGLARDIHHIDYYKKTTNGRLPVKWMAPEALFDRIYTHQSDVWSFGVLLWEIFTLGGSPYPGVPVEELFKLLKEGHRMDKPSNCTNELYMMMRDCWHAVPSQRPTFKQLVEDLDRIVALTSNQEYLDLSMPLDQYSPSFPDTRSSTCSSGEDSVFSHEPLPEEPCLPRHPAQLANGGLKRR
# UniProt P21802, whole entry, looked up: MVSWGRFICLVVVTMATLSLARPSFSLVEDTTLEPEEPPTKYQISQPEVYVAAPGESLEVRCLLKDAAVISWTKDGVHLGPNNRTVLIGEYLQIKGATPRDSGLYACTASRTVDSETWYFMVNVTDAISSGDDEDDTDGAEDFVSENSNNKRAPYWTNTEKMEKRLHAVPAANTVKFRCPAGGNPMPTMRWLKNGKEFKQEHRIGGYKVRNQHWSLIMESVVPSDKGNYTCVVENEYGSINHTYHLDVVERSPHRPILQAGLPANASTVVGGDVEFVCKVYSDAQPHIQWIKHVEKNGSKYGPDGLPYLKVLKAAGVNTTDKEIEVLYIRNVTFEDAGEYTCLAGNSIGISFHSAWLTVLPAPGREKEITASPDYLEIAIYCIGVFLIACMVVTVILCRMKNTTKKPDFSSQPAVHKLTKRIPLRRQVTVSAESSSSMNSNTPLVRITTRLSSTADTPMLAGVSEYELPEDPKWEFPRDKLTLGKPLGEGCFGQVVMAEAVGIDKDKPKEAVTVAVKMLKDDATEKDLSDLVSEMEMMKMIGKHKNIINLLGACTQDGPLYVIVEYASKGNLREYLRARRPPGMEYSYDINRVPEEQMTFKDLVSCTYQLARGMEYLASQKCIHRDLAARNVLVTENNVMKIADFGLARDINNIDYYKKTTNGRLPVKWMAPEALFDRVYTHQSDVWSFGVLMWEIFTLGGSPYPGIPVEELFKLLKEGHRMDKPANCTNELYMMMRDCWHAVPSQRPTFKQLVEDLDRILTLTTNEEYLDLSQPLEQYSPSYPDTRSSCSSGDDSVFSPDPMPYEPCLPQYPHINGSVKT
# UniProt P22607, whole entry, looked up: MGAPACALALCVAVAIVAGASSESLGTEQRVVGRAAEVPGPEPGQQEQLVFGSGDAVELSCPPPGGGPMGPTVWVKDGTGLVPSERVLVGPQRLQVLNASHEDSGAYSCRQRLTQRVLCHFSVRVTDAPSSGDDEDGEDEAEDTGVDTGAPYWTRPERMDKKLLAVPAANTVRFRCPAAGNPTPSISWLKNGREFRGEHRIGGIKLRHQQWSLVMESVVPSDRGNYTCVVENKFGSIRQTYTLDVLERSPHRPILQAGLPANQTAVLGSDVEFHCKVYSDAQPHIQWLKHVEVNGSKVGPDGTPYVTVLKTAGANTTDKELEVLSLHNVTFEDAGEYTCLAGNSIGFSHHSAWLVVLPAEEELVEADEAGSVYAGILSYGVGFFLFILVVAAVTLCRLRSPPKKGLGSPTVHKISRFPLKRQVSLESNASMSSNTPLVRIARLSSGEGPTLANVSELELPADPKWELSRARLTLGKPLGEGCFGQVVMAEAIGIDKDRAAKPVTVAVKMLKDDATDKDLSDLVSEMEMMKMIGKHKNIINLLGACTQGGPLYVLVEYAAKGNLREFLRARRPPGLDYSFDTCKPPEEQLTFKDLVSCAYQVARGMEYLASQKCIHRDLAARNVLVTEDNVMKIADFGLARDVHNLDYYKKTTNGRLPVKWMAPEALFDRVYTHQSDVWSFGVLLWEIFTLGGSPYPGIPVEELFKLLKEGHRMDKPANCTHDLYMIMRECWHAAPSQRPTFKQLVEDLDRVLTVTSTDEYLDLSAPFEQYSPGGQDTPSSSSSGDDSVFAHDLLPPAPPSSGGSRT
# UniProt P36888, whole entry: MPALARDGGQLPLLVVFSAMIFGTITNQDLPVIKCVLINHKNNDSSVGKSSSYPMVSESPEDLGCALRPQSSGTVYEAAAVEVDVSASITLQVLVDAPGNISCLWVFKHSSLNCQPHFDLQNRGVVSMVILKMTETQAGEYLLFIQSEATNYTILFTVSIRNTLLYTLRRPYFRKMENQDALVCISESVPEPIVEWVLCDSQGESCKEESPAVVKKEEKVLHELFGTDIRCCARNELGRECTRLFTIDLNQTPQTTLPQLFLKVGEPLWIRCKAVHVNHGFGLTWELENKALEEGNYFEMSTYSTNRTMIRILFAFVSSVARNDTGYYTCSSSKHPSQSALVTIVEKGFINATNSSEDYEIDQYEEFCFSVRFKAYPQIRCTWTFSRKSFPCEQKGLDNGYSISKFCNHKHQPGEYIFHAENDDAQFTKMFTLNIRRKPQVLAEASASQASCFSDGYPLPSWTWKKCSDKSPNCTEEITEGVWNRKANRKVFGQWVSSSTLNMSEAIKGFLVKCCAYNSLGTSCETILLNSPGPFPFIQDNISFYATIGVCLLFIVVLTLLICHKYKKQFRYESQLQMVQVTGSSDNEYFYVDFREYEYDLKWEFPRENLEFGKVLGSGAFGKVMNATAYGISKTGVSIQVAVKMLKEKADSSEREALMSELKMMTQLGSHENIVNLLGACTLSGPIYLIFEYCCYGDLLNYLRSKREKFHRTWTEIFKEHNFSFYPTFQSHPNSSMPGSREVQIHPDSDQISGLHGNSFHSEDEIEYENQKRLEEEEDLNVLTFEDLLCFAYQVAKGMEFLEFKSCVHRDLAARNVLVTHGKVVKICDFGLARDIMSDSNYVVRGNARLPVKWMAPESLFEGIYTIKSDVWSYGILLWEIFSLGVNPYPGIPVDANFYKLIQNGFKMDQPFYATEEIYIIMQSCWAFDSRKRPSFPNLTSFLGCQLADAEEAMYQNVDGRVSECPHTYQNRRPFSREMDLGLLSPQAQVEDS
# UniProt P06241, whole entry, looked up: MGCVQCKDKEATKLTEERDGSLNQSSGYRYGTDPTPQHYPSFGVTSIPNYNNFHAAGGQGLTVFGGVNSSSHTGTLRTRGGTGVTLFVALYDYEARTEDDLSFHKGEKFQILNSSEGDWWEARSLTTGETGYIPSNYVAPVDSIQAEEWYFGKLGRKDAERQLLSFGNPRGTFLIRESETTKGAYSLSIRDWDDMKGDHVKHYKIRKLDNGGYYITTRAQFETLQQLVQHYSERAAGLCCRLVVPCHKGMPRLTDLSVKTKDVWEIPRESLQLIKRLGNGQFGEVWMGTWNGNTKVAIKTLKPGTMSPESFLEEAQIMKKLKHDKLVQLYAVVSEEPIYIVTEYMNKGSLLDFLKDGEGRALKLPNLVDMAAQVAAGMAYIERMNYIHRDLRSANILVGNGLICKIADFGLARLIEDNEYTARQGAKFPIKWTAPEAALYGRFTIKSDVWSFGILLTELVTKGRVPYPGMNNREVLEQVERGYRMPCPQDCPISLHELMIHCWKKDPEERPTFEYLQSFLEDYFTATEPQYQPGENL
# UniProt P49840: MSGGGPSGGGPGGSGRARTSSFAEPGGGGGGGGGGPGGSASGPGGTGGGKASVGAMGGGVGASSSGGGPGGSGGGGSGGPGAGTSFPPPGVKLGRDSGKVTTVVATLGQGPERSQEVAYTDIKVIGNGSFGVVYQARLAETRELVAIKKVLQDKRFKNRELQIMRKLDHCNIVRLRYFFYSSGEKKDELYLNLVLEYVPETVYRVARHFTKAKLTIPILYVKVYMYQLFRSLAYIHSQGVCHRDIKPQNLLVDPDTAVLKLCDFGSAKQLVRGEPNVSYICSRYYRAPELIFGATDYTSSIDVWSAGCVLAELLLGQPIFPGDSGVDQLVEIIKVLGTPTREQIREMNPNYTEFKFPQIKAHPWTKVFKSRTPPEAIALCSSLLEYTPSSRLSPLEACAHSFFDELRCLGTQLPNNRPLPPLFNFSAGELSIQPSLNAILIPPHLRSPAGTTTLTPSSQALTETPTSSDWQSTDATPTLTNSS
# UniProt P14616: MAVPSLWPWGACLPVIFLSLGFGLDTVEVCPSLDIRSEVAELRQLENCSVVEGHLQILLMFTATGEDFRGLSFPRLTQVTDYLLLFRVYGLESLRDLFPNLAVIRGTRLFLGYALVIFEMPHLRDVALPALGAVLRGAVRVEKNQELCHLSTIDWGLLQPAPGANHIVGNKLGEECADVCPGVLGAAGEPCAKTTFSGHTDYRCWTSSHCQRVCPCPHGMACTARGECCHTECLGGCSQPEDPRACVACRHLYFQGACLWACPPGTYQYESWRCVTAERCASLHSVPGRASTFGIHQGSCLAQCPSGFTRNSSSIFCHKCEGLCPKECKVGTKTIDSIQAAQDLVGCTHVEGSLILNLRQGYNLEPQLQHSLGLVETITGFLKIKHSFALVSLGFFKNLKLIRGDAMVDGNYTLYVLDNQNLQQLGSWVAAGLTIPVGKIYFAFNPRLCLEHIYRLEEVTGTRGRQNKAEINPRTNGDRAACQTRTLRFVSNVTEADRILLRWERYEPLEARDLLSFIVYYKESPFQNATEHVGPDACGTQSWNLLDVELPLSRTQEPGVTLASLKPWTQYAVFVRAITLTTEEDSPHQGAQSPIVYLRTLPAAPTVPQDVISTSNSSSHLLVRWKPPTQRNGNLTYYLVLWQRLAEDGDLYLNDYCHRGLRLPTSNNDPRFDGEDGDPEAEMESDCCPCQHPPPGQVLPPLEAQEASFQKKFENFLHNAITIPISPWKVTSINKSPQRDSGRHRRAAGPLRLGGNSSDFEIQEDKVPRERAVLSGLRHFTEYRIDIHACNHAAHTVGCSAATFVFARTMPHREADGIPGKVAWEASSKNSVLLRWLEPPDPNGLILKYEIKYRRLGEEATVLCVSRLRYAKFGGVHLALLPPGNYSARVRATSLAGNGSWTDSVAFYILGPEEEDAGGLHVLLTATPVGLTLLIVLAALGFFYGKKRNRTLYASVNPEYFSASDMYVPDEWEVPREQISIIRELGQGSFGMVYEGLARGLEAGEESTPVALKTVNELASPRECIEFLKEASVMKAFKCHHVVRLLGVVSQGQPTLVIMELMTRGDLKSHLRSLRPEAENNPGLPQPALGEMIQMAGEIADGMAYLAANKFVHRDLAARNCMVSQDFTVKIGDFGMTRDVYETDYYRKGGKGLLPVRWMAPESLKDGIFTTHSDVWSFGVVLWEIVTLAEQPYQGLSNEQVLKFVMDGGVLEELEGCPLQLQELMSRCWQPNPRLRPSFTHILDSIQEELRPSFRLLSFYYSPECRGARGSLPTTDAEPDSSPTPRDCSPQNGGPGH
# How the values were obtained:
# Test in all cases: kinase-Nluc reporter destabilization hit call (1 = scored as downregulated) (binary); higher = compound decreases kinase abundance
# Conditions in all cases: K562; 2-18 h
# ERN1 = ERN1 (UniProt O75460)
# FGFR1 = FGFR1 (UniProt P11362)
# FGFR2 = FGFR2 (UniProt P21802)
# FGFR3 = FGFR3 (UniProt P22607)
# FGR = FGR (UniProt P09769)
# FLT3 = FLT3 (UniProt P36888)
# FYN = FYN (UniProt P06241)
# GSK3A = GSK3A (UniProt P49840)
# HER2 = HER2 (UniProt P04626)
# INSRR = INSRR (UniProt P14616)
SMILES,kinase-Nluc reporter destabilization hit call (ERN1),kinase-Nluc reporter destabilization hit call (FGFR1),kinase-Nluc reporter destabilization hit call (FGFR2),kinase-Nluc reporter destabilization hit call (FGFR3),kinase-Nluc reporter destabilization hit call (FGR),kinase-Nluc reporter destabilization hit call (FLT3),kinase-Nluc reporter destabilization hit call (FYN),kinase-Nluc reporter destabilization hit call (GSK3A),kinase-Nluc reporter destabilization hit call (HER2),kinase-Nluc reporter destabilization hit call (INSRR)
COc1cc(N2CCC(N3CCN(C)CC3)CC2)ccc1Nc1ncc(Cl)c(Nc2ccccc2P(C)(C)=O)n1 [Brigatinib] (2 µM),inactive: 0,inactive: 0,inactive: 0,inactive: 0,inactive: 0,inactive: 0,inactive: 0,inactive: 0,inactive: 0,inactive: 0
Nc1nccc(Oc2ccc(NC(=O)c3cn(COP(=O)(O)O)cc(-c4ccc(F)cc4)c3=O)cc2F)c1Cl (10 µM),inactive: 0,inactive: 0,inactive: 0,inactive: 0,inactive: 0,inactive: 0,inactive: 0,inactive: 0,inactive: 0,inactive: 0
NCCN1CCN(C/C=C/C(=O)N2CCC[C@@H](n3nc(-c4ccc(Oc5ccccc5)cc4)c4c(N)ncnc43)C2)CC1 [Ibrutinib-MPEA] (10 µM),inactive: 0,inactive: 0,inactive: 0,inactive: 0,inactive: 0,inactive: 0,inactive: 0,inactive: 0,inactive: 0,inactive: 0
COCCOc1cnc(Sc2cc(C)c(-c3csc(NC(=O)c4ccncc4)n3)c(C)c2)cn1 [T-1101 (tosylate)] (2.5 µM),inactive: 0,inactive: 0,inactive: 0,inactive: 0,inactive: 0,inactive: 0,inactive: 0,inactive: 0,inactive: 0,inactive: 0
COc1cc([N+](=O)[O-])ccc1S(=O)(=O)N1C[C@@H](CN2CCN(c3ccccn3)CC2)[C@H](c2cccc(F)c2)C1 (relative stereo) (10 µM),inactive: 0,inactive: 0,inactive: 0,inactive: 0,inactive: 0,inactive: 0,inactive: 0,inactive: 0,inactive: 0,inactive: 0
CCOc1ccc(C(=O)Nc2ncc([N+](=O)[O-])s2)cc1 (10 µM),inactive: 0,inactive: 0,inactive: 0,inactive: 0,inactive: 0,inactive: 0,inactive: 0,inactive: 0,inactive: 0,inactive: 0
COc1ccc(C2CC(c3ccccc3)=NN2c2ccc(S(N)(=O)=O)cc2)cc1 (stereo not given) (10 µM),inactive: 0,inactive: 0,inactive: 0,inactive: 0,inactive: 0,inactive: 0,inactive: 0,inactive: 0,inactive: 0,inactive: 0
CS(=O)(=O)c1ccc(-c2cnc(N)c(C(=O)Nc3ccccc3)n2)cc1 (10 µM),inactive: 0,inactive: 0,inactive: 0,inactive: 0,inactive: 0,inactive: 0,inactive: 0,inactive: 0,inactive: 0,inactive: 0
Cc1ccc2nc(NC(=O)CSc3nc4c(c(=O)n3-c3ccccc3)SCC4)sc2c1 (2 µM),inactive: 0,inactive: 0,inactive: 0,inactive: 0,inactive: 0,inactive: 0,inactive: 0,inactive: 0,inactive: 0,inactive: 0
Cc1cc(-c2cc(OC(=O)c3ccccc3)ccc2Cl)cc2nnc(Nc3ccc(OCCN4CCCC4)cc3)nc12 (0.5 µM),inactive: 0,inactive: 0,inactive: 0,inactive: 0,inactive: 0,inactive: 0,inactive: 0,inactive: 0,inactive: 0,inactive: 0
CNc1nc(Nc2cnn(C3CCN(C4COC4)CC3F)c2Cl)ncc1C(F)(F)F (stereo not given) (10 µM),inactive: 0,inactive: 0,inactive: 0,inactive: 0,inactive: 0,inactive: 0,inactive: 0,inactive: 0,inactive: 0,inactive: 0
COc1ccc2[nH]cc(/C=C3\C(=O)Nc4ccc(NC(=O)CCN5CCCCC5)cc43)c2c1 (2.5 µM),inactive: 0,inactive: 0,inactive: 0,inactive: 0,inactive: 0,inactive: 0,inactive: 0,inactive: 0,inactive: 0,inactive: 0
CC(=NNC(=O)c1ccc(C)c(Br)c1)c1ccc(O)cc1O [mTOR inhibitor-1] (2.5 µM),inactive: 0,inactive: 0,inactive: 0,inactive: 0,inactive: 0,inactive: 0,inactive: 0,inactive: 0,inactive: 0,inactive: 0
COCCOc1ccc(-c2cn(-c3ccccc3)c3nc[nH]c(=O)c23)cc1 (10 µM),inactive: 0,inactive: 0,inactive: 0,inactive: 0,inactive: 0,inactive: 0,inactive: 0,inactive: 0,inactive: 0,inactive: 0
Cn1cnc(-c2cc3nccc(Oc4ccc(NC(=S)NC(=O)Cc5ccccc5)cc4F)c3s2)c1 [MGCD-265 analog] (10 µM),inactive: 0,inactive: 0,inactive: 0,inactive: 0,inactive: 0,inactive: 0,active: 1,inactive: 0,inactive: 0,inactive: 0
Nc1cc(Nc2ccc(S(N)(=O)=O)cc2)ncn1 (10 µM),inactive: 0,inactive: 0,inactive: 0,inactive: 0,inactive: 0,inactive: 0,inactive: 0,inactive: 0,inactive: 0,inactive: 0
Cc1cc(Nc2nc(N[C@@H](C)c3ccc(F)cc3)c(C#N)cc2F)n[nH]1 (10 µM),inactive: 0,inactive: 0,inactive: 0,inactive: 0,inactive: 0,inactive: 0,inactive: 0,inactive: 0,inactive: 0,inactive: 0
Cc1ccc(-c2c(C(=O)CF)n(CCCO)c3ncnc(N)c23)cc1 (10 µM),inactive: 0,inactive: 0,inactive: 0,inactive: 0,inactive: 0,inactive: 0,inactive: 0,inactive: 0,inactive: 0,inactive: 0
Nc1ncnc2c1c(-c1ccc(Oc3ccccc3)cc1)nn2C1CCNCC1 [N-piperidine Ibrutinib (hydrochloride)] (10 µM),inactive: 0,inactive: 0,inactive: 0,inactive: 0,inactive: 0,inactive: 0,inactive: 0,inactive: 0,inactive: 0,inactive: 0
O=C(/C=C/c1ccc(O[C@@H]2O[C@H](CO)[C@@H](O)[C@H](O)[C@H]2O[C@@H]2OC[C@](O)(CO)[C@H]2O)cc1)c1ccc(O)cc1O [Isoliquiritin apioside] (10 µM),inactive: 0,inactive: 0,inactive: 0,inactive: 0,inactive: 0,inactive: 0,inactive: 0,inactive: 0,inactive: 0,inactive: 0
Cc1cc2cc(Nc3ccnc(Nc4ccc5[nH]c(C)cc5c4)n3)ccc2[nH]1 (2.5 µM),inactive: 0,inactive: 0,inactive: 0,inactive: 0,inactive: 0,inactive: 0,inactive: 0,inactive: 0,inactive: 0,inactive: 0
O=c1cc(O)cc(/C=C/c2ccc(O)c(O)c2)o1 [Hispidin] (10 µM),inactive: 0,inactive: 0,inactive: 0,inactive: 0,inactive: 0,inactive: 0,inactive: 0,inactive: 0,inactive: 0,inactive: 0
COc1ccc(-c2ccc3c(N4CCOC[C@@H]4C)nc(N4CCOC[C@@H]4C)nc3n2)cc1CO (2.5 µM),inactive: 0,inactive: 0,inactive: 0,inactive: 0,inactive: 0,inactive: 0,inactive: 0,inactive: 0,inactive: 0,inactive: 0
N#CC(c1ccnc(NCCc2cccnc2)n1)c1nc2ccccc2s1 (stereo not given) (10 µM),inactive: 0,inactive: 0,inactive: 0,inactive: 0,inactive: 0,inactive: 0,inactive: 0,inactive: 0,inactive: 0,inactive: 0
Cc1ccc(NC(=S)NNc2c([N+](=O)[O-])cc(C(F)(F)F)cc2[N+](=O)[O-])cc1Cl (10 µM),inactive: 0,inactive: 0,inactive: 0,inactive: 0,inactive: 0,inactive: 0,inactive: 0,inactive: 0,inactive: 0,inactive: 0
CN1C(=O)C(Cc2c[nH]c3ccccc23)NC1=S (stereo not given) [Necrostatin-1] (10 µM),inactive: 0,inactive: 0,inactive: 0,inactive: 0,inactive: 0,inactive: 0,inactive: 0,inactive: 0,inactive: 0,inactive: 0
COc1cc(N2CCN(C)CC2)ccc1Nc1ncc2c(n1)N(C1CCC1)C(=O)N(c1c(C)cccc1C)C2 (2.5 µM),inactive: 0,inactive: 0,inactive: 0,inactive: 0,inactive: 0,inactive: 0,inactive: 0,inactive: 0,inactive: 0,inactive: 0
C=C(CCC=C(C)C)[C@H]1CC[C@]2(C)[C@@H]1[C@H](O)C[C@@H]1[C@@]3(C)CC[C@H](O[C@@H]4O[C@H](CO)[C@@H](O)[C@H](O)[C@H]4O[C@@H]4O[C@H](CO)[C@@H](O)[C@H](O)[C@H]4O)C(C)(C)[C@@H]3CC[C@]12C [Ginsenoside Rk1] (10 µM),inactive: 0,inactive: 0,inactive: 0,inactive: 0,inactive: 0,inactive: 0,inactive: 0,inactive: 0,inactive: 0,inactive: 0
COc1ccc(CC(=O)Nc2nc3c(s2)CCc2ccccc2-3)cc1OC (10 µM),inactive: 0,inactive: 0,inactive: 0,inactive: 0,inactive: 0,inactive: 0,inactive: 0,inactive: 0,inactive: 0,inactive: 0

# Single records, from the list above. Values in the order: kinase-Nluc reporter destabilization hit call (ERN1)	kinase-Nluc reporter destabilization hit call (FGFR1)	kinase-Nluc reporter destabilization hit call (FGFR2)	kinase-Nluc reporter destabilization hit call (FGFR3)	kinase-Nluc reporter destabilization hit call (FGR)	kinase-Nluc reporter destabilization hit call (FLT3)	kinase-Nluc reporter destabilization hit call (FYN)	kinase-Nluc reporter destabilization hit call (GSK3A)	kinase-Nluc reporter destabilization hit call (HER2)	kinase-Nluc reporter destabilization hit call (INSRR)
# Cc1ccc2nc(NC(=O)CSc3nc4c(c(=O)n3-c3ccccc3)SCC4)sc2c1 (2 µM) is entered as inactive: 0	inactive: 0	inactive: 0	inactive: 0	inactive: 0	inactive: 0	inactive: 0	inactive: 0	inactive: 0	inactive: 0
# COc1ccc(-c2ccc3c(N4CCOC[C@@H]4C)nc(N4CCOC[C@@H]4C)nc3n2)cc1CO (2.5 µM) is entered as inactive: 0	inactive: 0	inactive: 0	inactive: 0	inactive: 0	inactive: 0	inactive: 0	inactive: 0	inactive: 0	inactive: 0
